Experimental data published in PubChem BioAssay AID493014 (National Center for Advancing Translational Sciences (NCATS), 2011).
This is one part of the list. These are further read-outs of the screen, such as a control signal, another cell line or another target. No call is given for them. Most of these compounds were active or inconclusive in the main read-out, so they are no random draw. Words in brackets tell the shape of the fitted curve; partial curves, single points and poor fits give uncertain potencies.

Assay: qHTS Assay to Find Inhibitors of Chronic Active B-Cell Receptor Signaling
Details: ABC-DLBCL IkBa-CBG/CBR reporter, luminescence ratio (green luciferase fused to IkBa over red control in TMD8 lymphoma cells), 4 h
Method in brief: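 Cell line TMD8 (human ABC DLBCL), stably expressing tet-inducible CBG68-IkBa fusion and CBR; IMDM/0.5% FBS; cpd up to 46 uM; dox induction, 4 h, 37C/5% CO2; dual luminescence; green/red ratio; MG132 control.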

[1] = measured here: CBR red luminescence, cell number
[2] = measured here: IkBa-CBG green luminescence

| Structure (SMILES) | AC50 [1] | AC50 [2] |
| --- | --- | --- |
| CC(C)CC1CCCCC1OC(=O)C[N+]1(C)CCCCC1 (stereo unspecified) | 25.1 µM [falling, single point] | – |
| Cc1ccc(S(=O)(=O)N2CCN(C(=O)c3n[nH]c(=O)c4ccccc34)CC2)c(C)c1 | 29.1 µM [falling, single point] | – |
| COc1cc(C2C(C#N)=C(N)Oc3cc(C)oc(=O)c32)cc2c1OCO2 (stereo unspecified) | 32.6 µM [rising, single point] | – |
| C=CCC[C@H](Cc1ccc(F)cc1)C(=O)OC[C@@H](Cc1c[nH]c2ccccc12)NC(=O)[C@H](CC=C)CC(=O)N(CCO)Cc1ccccc1 | 20.6 µM [falling, partial curve, poor fit] | – |
| C/C(=N\Nc1cccc([N+](=O)[O-])c1)c1cc(F)ccc1O | 35.5 µM [falling, single point] | – |
| FC(F)(F)c1nc(-c2cccnc2)ncc1-c1nnnn1-c1ccccc1 | 35.5 µM [falling, single point] | – |
| Cc1nnc(SCC(=O)Nc2cccnc2Cl)s1 | 0.461 µM [rising, full curve, poor fit] | – |
| Cc1cc(C(=O)N/N=C/c2ccccc2)c(C)o1 | 7.94 µM [falling, partial curve, poor fit] | – |
| CN(C)CC1CCCCC1C1(O)c2ccccc2CSc2sccc21 (stereo unspecified) | 29.1 µM [falling, single point] | – |
| O=C(CSc1ncccn1)n1c2c(c3ccccc31)CCCC2 | 25.1 µM [falling, single point] | – |
| OCCN(CCO)CC(O)COCCC12CC3CC(CC(C3)C1)C2 (stereo unspecified) | 4.11 µM [rising, single point] | – |
| CCOC(=O)CSc1nc2cc3c(cc2cc1CC)OCCO3 | 3.66 µM [rising, partial curve, poor fit] | – |
| O=C1/C(=C/c2ccco2)SC(=S)N1CCC(=O)N1CCCCC1CCO (stereo unspecified) | – | 12.6 µM [rising, partial curve, poor fit] |
| O=C(N/N=C/c1cccnc1)c1cc(Br)ccc1O | 1.78 µM [falling, full curve] | – |
| Cc1cc(Nc2ccccc2N2CCOCC2)n2ncnc2n1 | 25.1 µM [rising, single point] | – |
| CN(c1nc2ccccc2[nH]c1=O)C1CCCCC1 | 0.316 µM [rising, full curve] | – |
| Cc1ccccc1CSCC(=O)NC(=O)NCc1ccco1 | 22.4 µM [falling, single point] | – |
| Cc1ccnc(N2C(=O)c3ccccc3C2O)c1 (stereo unspecified) | 20.6 µM [falling, single point] | – |
| Cc1cc(C)n(-c2ccc(C(=O)NCc3ccc(F)cc3)cc2)n1 | 3.16 µM [rising, partial curve, poor fit] | – |
| O=C(OCc1nc2ccccc2s1)c1cc2ccccc2oc1=O | 9.2 µM [rising, partial curve] | – |
| CC1(C)CC(=O)C(C(c2ccco2)C2C(=O)CC(C)(C)CC2=O)C(=O)C1 | 7.31 µM [rising, partial curve, poor fit] | – |
| COc1ccc(CN2C(=O)CC(Cc3cc(C)cc(C)c3)C2=O)cc1OC (stereo unspecified) | 16.4 µM [rising, partial curve] | – |

Not a retest: an excerpt of the list.

| Structure (SMILES) | AC50 [1] | AC50 [2] |
| --- | --- | --- |
| O=C1/C(=C/c2ccco2)SC(=S)N1CCC(=O)N1CCCCC1CCO (stereo unspecified) | – | 12.6 µM [rising, partial curve, poor fit] |
| O=C(N/N=C/c1cccnc1)c1cc(Br)ccc1O | 1.78 µM [falling, full curve] | – |
| Cc1cc(Nc2ccccc2N2CCOCC2)n2ncnc2n1 | 25.1 µM [rising, single point] | – |
| CN(c1nc2ccccc2[nH]c1=O)C1CCCCC1 | 0.316 µM [rising, full curve] | – |

Following part:

| Structure (SMILES) | AC50 [1] | AC50 [2] |
| --- | --- | --- |
| Cc1cccc2sc(NNC(=O)C3=COCCO3)nc12 | 3.55 µM [rising, single point] | – |
| O=C(NC(=S)Nc1cccc(NC(=S)NC(=O)c2ccco2)n1)c1ccco1 | – | 4.47 µM [falling, partial curve, poor fit] |
| CC1CN(S(=O)(=O)c2cccc(C(=O)OCC(=O)c3cccs3)c2)CC(C)O1 (stereo unspecified) | 29.1 µM [rising, single point] | – |
| Oc1cccc(/C=C/c2ccc3cccc(O)c3n2)c1 | 35.5 µM [falling, single point] | 25.1 µM [falling, single point] |
| COc1ccc(CC(=O)Nc2cc(S(=O)(=O)N3CCOCC3)ccc2N2CCOCC2)cc1 | 6.31 µM [rising, single point] | – |
| CC1=CC(C)(C)Nc2ccc(OC(=O)CN3C(=O)CCC3=O)cc21 | 10.3 µM [falling, partial curve, poor fit] | – |
| N=C1C(c2ccccc2)=C(O)C2CCc3ccccc3N12 (stereo unspecified) | 12.6 µM [falling, single point] | – |
| O=C(NCCc1ccccc1)c1nccc2ccccc12 | 13 µM [falling, partial curve] | – |
| Cc1ccc(S(=O)(=O)N(CC(=O)NCc2ccccn2)c2ccc(Cl)cc2)cc1 | 35.5 µM [falling, single point] | – |
| C/C(CCc1ccc2c(c1)OCO2)=N\NC(=O)c1ccc(C)cc1C | 0.794 µM [falling, partial curve, poor fit] | – |
| CC(C)(C)c1cc(-c2csc(Nc3ccccc3)[n+]2Cc2ccc(C(=O)O)cc2)cc(C(C)(C)C)c1O | 22.4 µM [falling, single point] | – |
| COc1ccc(CCNC(=O)CSc2nnc(Cc3cccn3C)n2C)cc1OC | 20 µM [rising, partial curve, poor fit] | – |
| CCc1nc(SCC(=O)NCCc2ccc(OC)c(OC)c2)c2c(=O)n(C)c(=O)n(C)c2n1 | 20.6 µM [rising, single point] | – |
| Cc1ccc(NC(=O)COC(=O)Cc2c[nH]c3ccccc23)cc1C | 4.61 µM [falling, full curve] | – |
| COc1cc(C(=O)N/N=C/c2ccc(OC(=O)c3ccccc3Cl)c(OC)c2)ccc1O | 22.4 µM [falling, partial curve, poor fit] | – |
| CN(C)C(=O)c1nnsc1Sc1ccc(Cl)cc1 | 35.5 µM [rising, single point] | – |
| O=C(c1ccc2c(c1)OCO2)N1CCN=C1SCc1ccccc1 | 7.31 µM [rising, single point] | – |
| CCOC(=O)C1C(=O)C=C(c2cccc(NS(C)(=O)=O)c2)CC1c1ccco1 (stereo unspecified) | 20.6 µM [falling, single point] | – |
| COc1cc(C(=O)NC(=S)Nc2ccc(Cc3ccncc3)cc2)cc(OC)c1OC | 35.5 µM [falling, single point] | – |
| Cc1ccc(C)n1-c1ccc(C(=O)Nc2ccccc2)cc1 | 16.4 µM [falling, single point] | – |
| CCN(c1cccc(C)c1)S(=O)(=O)c1c(C)[nH]c(=O)[nH]c1=O | 2.31 µM [rising, full curve, poor fit] | – |
| Cc1ccc(-n2c(C)nn(-c3ncc(C(F)(F)F)cc3Cl)c2=O)cc1 | 14.6 µM [rising, single point] | – |

| Structure (SMILES) | AC50 [1] | AC50 [2] |
| --- | --- | --- |
| CCC1CCCCN1C(=O)Cn1nc([N+](=O)[O-])c(Cl)c1C (stereo unspecified) | 0.112 µM [falling, full curve, poor fit] | – |
| COc1ccc(NC(=O)C2=Cc3ccccc3OC2)cc1 | 8.91 µM [falling, partial curve] | – |
| Cc1ccc(C)c2[nH]c(=O)c(CN(Cc3cccnc3)C(=S)NCc3ccco3)cc12 | 1.12 µM [rising, single point] | – |
| CCC(NC(=O)c1ccccc1NC(=O)c1ccccc1)C(=O)NNC(=O)CSc1nc2ccccc2o1 (stereo unspecified) | 29.1 µM [falling, single point] | – |
| CN1CCN(c2ccc(S(=O)(=O)N3CCCCC3)cc2NC(=O)/C=C/c2ccc(Cl)c([N+](=O)[O-])c2)CC1 | 10.3 µM [falling, partial curve, poor fit] | – |
| O=C1Nc2ccccc2N(O)N1c1ccc(Cl)c(Cl)c1 | 12.6 µM [falling, single point] | – |
| Cc1cc(NC(=O)c2ccc(Cl)cc2Cl)no1 | 35.5 µM [rising, single point] | – |
| Cc1cccc(N2CCN(c3ccc(NC(=O)c4ccccc4)cc3C(=O)O)CC2C)c1 (stereo unspecified) | 0.562 µM [rising, full curve, poor fit] | – |
| COc1ccc(-c2noc(CSc3nc(N)cc(=O)[nH]3)n2)cc1 | 31.6 µM [rising, single point] | 15.8 µM [falling, single point] |
| CN(Cc1nc(-c2ccncc2)no1)S(=O)(=O)c1ccccc1 | 14.6 µM [rising, partial curve] | – |
| COc1ccc(/C(N)=N/OC(=O)C2CCC(=O)N2S(=O)(=O)c2ccc(C)cc2)cc1OC (stereo unspecified) | 7.31 µM [rising, partial curve] | – |
| Cc1[nH]c2ccccc2c1C(=O)C(=O)Nc1ccc2c(c1)OCO2 | 5.62 µM [rising, full curve, poor fit] | – |
| N#Cc1ccc(NC(=O)N2CCC(c3nc4c(nnn4Cc4cccc(Cl)c4)c(=O)[nH]3)CC2)cc1 | 20 µM [falling, single point] | – |
| COc1ccccc1/C=C1\SC(=O)N(CCC(=O)NCCCn2ccnc2)C1=O | 11.2 µM [falling, partial curve, poor fit] | – |
| CCCc1cc(=O)[nH]c(SCC(=O)Nc2cc(S(=O)(=O)N3CCOCC3)ccc2N(CC)CC)n1 | 0.461 µM [rising, partial curve] | – |
| COc1cccc(-c2ncc3ccccc3c2COC(=O)c2ccc(C(F)(F)F)cc2)c1 | 13 µM [falling, partial curve] | – |
| COc1ccc(C(=O)NCc2ccc(-c3nc4ccccc4s3)cc2)cc1OC | 29.1 µM [rising, single point] | – |
| Cc1nc2ccccc2c2c1CC(C)S2 (stereo unspecified) | 1.58 µM [rising, full curve, poor fit] | – |
| O=c1[nH]c(-c2cccnc2)nc2sc(-c3ccccc3)cc12 | 0.282 µM [falling, full curve] | – |
| CCS(=O)(=O)N1CCCC(C(=O)NCc2cccc(OC)c2)C1 (stereo unspecified) | 7.31 µM [rising, partial curve, poor fit] | – |
